## Primary screen of a compound library

Sequences of proteins named here, by UniProt entry; tags and fusion partners are left off.
UniProt E9BF75, entry or part of it: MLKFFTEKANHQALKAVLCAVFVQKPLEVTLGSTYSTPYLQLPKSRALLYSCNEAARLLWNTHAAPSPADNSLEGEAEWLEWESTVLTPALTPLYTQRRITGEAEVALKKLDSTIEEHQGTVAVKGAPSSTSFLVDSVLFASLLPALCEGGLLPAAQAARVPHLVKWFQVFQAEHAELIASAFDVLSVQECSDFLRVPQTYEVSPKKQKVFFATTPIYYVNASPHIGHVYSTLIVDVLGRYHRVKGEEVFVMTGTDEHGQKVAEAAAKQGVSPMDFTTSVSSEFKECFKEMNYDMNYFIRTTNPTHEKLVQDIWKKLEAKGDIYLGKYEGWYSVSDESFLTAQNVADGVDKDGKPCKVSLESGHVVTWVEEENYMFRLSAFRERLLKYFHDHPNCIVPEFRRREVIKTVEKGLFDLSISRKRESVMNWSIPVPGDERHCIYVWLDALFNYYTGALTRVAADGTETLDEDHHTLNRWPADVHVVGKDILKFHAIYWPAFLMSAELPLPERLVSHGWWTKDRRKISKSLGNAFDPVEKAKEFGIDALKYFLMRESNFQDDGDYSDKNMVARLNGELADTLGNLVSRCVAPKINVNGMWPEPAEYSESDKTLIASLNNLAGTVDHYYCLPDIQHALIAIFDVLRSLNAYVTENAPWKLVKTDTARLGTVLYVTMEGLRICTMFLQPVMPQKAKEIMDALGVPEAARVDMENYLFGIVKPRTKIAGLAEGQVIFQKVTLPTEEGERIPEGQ

Source: ChEMBL document CHEMBL3988442, “University of Dundee, Small-Polar-MMV Screening Library” (2021).

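Primary screen of methionyl-tRNA synthetase; the read-out is not stated. Target: Methionyl-tRNA synthetase (putative), Leishmania donovani (UniProt E9BF75). The test concentration is not given. The values are filed as inhibition. Size under these conditions: about 68,000 compounds, about 24 of them at 50% or above in at least one test.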

Results are percentages, as filed. The record does not define 0% and 100%; most values in the screen are far below 50% and negative numbers occur (in some assays of this library far below -100). This is an unselected part of the compounds tested.

compound	Inhibition
Cn1cc(NC(=O)c2cccc(Cl)c2)c(=O)n(C)c1=O	3.901%
CCC1COCCN1C(=O)CNC(=O)c1ccsc1 (stereo not shown)	13.71%
CN1CC[C@]2(CN(C(=O)c3ccc[nH]3)C[C@H]2c2ccccc2)C1=O	12.11%
CNc1ncccc1CN1CCN(C(C)=O)CC(C(N)=O)C1 (stereo not shown)	7.937%
COCCN1C(=O)C[C@H]2[C@H]1CCN2C(=O)c1ccc[nH]1	11.88%
CSC(C)C(=O)N1CCCN(Cc2nccn2C)CC1 (stereo not shown)	16.33%
COCC(=O)NC[C@H]1C[C@@H]2CCN1C[C@@H]2CN1CCc2ccccc2C1	6.015%
Cc1ccccc1N1CC2(CCN(S(=O)(=O)c3ccccc3)C2)CC1=O (stereo not shown)	20.73%
CC(O)C1CCN(Cc2cnc3c(-c4ccccc4)cnn3c2)CC1 (stereo not shown)	10.96%
Cc1cccc(N2CCN(CCC(=O)NCc3cnc(C)cn3)CC2)c1	3.344%
O=C(Cc1ccccn1)N1CCC2(CC1)CN(CC1CC1)C(=O)CO2	-6.266%
Cc1cc(N2Cc3cnn(CCO)c3C2)nc(-c2ccccc2)n1	8.192%
CCn1ccnc1CN1CCCC1C(=O)Nc1nccs1 (stereo not shown)	23.39%
CN1CCC(C(=O)N2CCN(Cc3cccc(Cl)c3)CC2)CC1=O (stereo not shown)	8.101%
Cc1ccc(C)c(CC(=O)NC2CCS(=O)(=O)CC2)c1	14.29%
O=C(C1CC1)N1CC[C@H](c2nc3ccccc3o2)C1	-1.099%
CC(C)(C)OC(=O)N1CCCN1C(=O)c1cccc2cc[nH]c12	5.59%
CN(Cc1cnn(C)c1)C(=O)NCc1ccc2c(c1)OCCO2	20.63%
Cc1cnc(N2CCCC3(CCN(Cc4csc(C)n4)C3=O)C2)nc1 (stereo not shown)	16.32%
COc1ncccc1CNC(=O)c1ccco1	7.225%
O=C(CCc1nnc2ccccn2c1=O)NCc1cccnc1	4.301%
Cc1c(OCC(=O)NCc2ccccc2Cl)c(=O)ccn1C	13.03%
Cc1nnc(-c2cccc(N3CCC(NC4CCSC4)CC3)c2)s1 (stereo not shown)	9.966%
Cc1cccnc1CNc1cc(N2CCCC2CO)ncn1 (stereo not shown)	10.93%
O=C(c1ccc(Cl)cc1)N1CCC(N2CCCCC2=O)CC1	13.71%
CCc1nc(CN2CCCC(Nc3ncnc4ccsc34)C2)no1 (stereo not shown)	14.09%
O=C(Nc1ccccc1)N1CCN(Cc2noc(C3CC3)n2)CC1	11.75%
O=C1CC2(CCN(Cc3ncc[nH]3)CC2)CN1Cc1ccc(Cl)cc1	10.87%
CC(C)n1c(=O)c2sccc2n(CC(=O)Nc2ccccc2)c1=O	-2.286%
c1cnn(CC2CCCCN2Cc2nc(-c3ccsc3)no2)c1 (stereo not shown)	26.88%
CNC(=O)c1ccc(NC2CCN(CC(F)(F)F)C2=O)cc1Cl (stereo not shown)	14.09%
COc1ccc(Cl)cc1CN(C)C(=O)CN1C(=O)OC[C@@H]1C(C)C	10.3%
CCOCc1ncn2c1CN(C(=O)Nc1cccc(C)c1)CC2	21.9%
Cn1cnc2c1CCN(Cc1csc(-c3ccccc3F)n1)C2	22.69%
COc1ccc(-n2c(CCC(=O)O)nc3ccccc32)cc1CO	15.72%
OCCN(Cc1nc(-c2ccc3c(c2)OCO3)no1)Cc1cccs1	10.75%
c1cc(CCN2CCCC2CN2CCCCC2)ccn1 (stereo not shown)	3.679%
Cn1cc(C2CCCN2Cc2csc(C(C)(C)C)n2)cn1 (stereo not shown)	9.859%
Cn1ccn2ncc(C(=O)NCc3cccnc3N3CCCC(O)C3)c12 (stereo not shown)	12.72%
N#Cc1ccccc1CN1C[C@@H]2CC[C@H](C1)N(Cc1cscn1)C2=O	19.2%
COc1cc(N2CCCC(c3nccn3Cc3cscn3)C2)nc(N)n1 (stereo not shown)	7.407%
CO[C@H]1COCCN(C(=O)c2ccc(C#N)cc2)C1	3.008%
CC1CCN(C)c2ccccc2N1C(=O)c1ccn(C)c(=O)c1 (stereo not shown)	13.73%
Cc1cc2nc(C(C)C)cc(N3CCN(S(N)(=O)=O)CC3)n2n1	15.76%
CC(C)(C)c1cc(NC(=O)CN(Cc2ccco2)Cc2cccs2)on1	6.964%
CC(C)(C)n1cc(C2=CCN(CCNC(=O)c3ccccc3)CC2)cn1	7.116%
COc1cc(CCC(=O)NC2CC2)ccc1OCC(F)(F)F	10.24%
Cc1nc2ccccc2nc1CN1CCOC(Cn2cccn2)C1 (stereo not shown)	18.8%
CN1CCC(N(CCc2ccccc2)C(=O)c2ccc(CO)cc2)CC1	11.63%
CS(=O)(=O)NCCC(=O)NCc1cccnc1-n1cnc2ccccc21	10.99%
Cc1nc(C2CCCN2C(=O)c2ccc(F)cc2)ncc1C(N)=O (stereo not shown)	7.767%
COCCN1CCCC1Cn1nc(C)cc1C (stereo not shown)	13.68%
Cc1cc(CN2CCN(C(=O)c3sccc3C(C)C)CC2)no1	13.89%
CCc1nc(C2CCCN2C(=O)c2cnc[nH]2)no1 (stereo not shown)	14.74%
CCCS(=O)(=O)N1C[C@@H]2CN(Cc3cnn(C)c3)CCO[C@@H]2C1	9.22%
O=C(c1cncnc1)N1CCCC(c2nccs2)C1 (stereo not shown)	18.07%
COc1ccc2c(c1)CCCN(CC(=O)NCC1CCCO1)C2 (stereo not shown)	17.14%
Cn1cc(N2C[C@@H]3CN(Cc4ccccn4)C[C@@H]3C2=O)cn1	5.042%
COCCn1ccc(NC(=O)Nc2ccc(C(N)=O)c(F)c2)n1	4.93%
O=C(CCCn1cncn1)N1CCC2(CCCN(C3CCCC3)C2=O)C1 (stereo not shown)	11.54%
COCC(=O)N1CCC2(COCc3cnc(-c4ccccc4)nc32)C1 (stereo not shown)	12.9%
Cc1ccc(-c2nnc(CN3CCc4nn(C)c(=O)cc4C3)o2)cc1	13.19%
COc1cccnc1NC(=O)COC1CCCC1	0%
COCCn1ccc(NC(=O)Nc2ccccn2)n1	11.49%
CCc1nc(CN2CCOC(Cn3cncn3)C2)no1 (stereo not shown)	8.38%
CC(C)CN1CC[C@H]2OCC[C@@H](C(=O)N3CCCO3)[C@@H]2C1	11.24%
Cc1ccccc1CC(=O)N1CCOCC1c1c(C)n[nH]c1C (stereo not shown)	13.72%
CC(C)n1nnnc1-c1ccc(NC(=O)CC(F)(F)F)cc1F	8.467%
Cc1ccnc(C2(C)CCCN2C(=O)c2cnccn2)n1 (stereo not shown)	18.12%
CC1(C)CN(C(=O)Nc2ccc(Cn3cccn3)cc2)CCO1	15.12%
Cc1noc2ncc(C(=O)N(CC3CCOC3)C3CC3)cc12 (stereo not shown)	14.29%
O=C1CN(C(=O)CC2c3ccccc3CCc3ccccc32)CCN1	2.168%
Cc1ccc(C(=O)N2C[C@H](N3CCOCC3)[C@@H]3OCCC[C@@H]32)cn1	13.49%
Cc1nsc(NC2CC(=O)N(C(C)(C)C)C2)n1 (stereo not shown)	12.85%
CCOC(=O)N1CCN(C(=O)c2sc(-c3ccncc3)nc2C)CC1	7.645%
Cc1cnn(CC2CN(Cc3nc(-c4ccccn4)no3)CCO2)c1 (stereo not shown)	19.33%

For reference, 6 entries once more:

compound,Inhibition
CC1(C)CN(C(=O)Nc2ccc(Cn3cccn3)cc2)CCO1,15.12%
COCCN1CCCC1Cn1nc(C)cc1C (stereo not shown),13.68%
O=C(CCc1nnc2ccccn2c1=O)NCc1cccnc1,4.301%
Cc1ccc(-c2nnc(CN3CCc4nn(C)c(=O)cc4C3)o2)cc1,13.19%
Cc1ccccc1N1CC2(CCN(S(=O)(=O)c3ccccc3)C2)CC1=O (stereo not shown),20.73%
Cc1ccc(C(=O)N2C[C@H](N3CCOCC3)[C@@H]3OCCC[C@@H]32)cn1,13.49%